Measurements: the supplement of paper PMC6078165
The reference is the same well before dosing, and untreated signal decays as well.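 Fibroblast labels name human fibroblasts: mostly primary ones from tissues such as uterus (C12385, HUF), lung (H6013), bone (Hs27A), adrenal (HADF) and skin (WS1), plus mammary HMF and breast cancer-associated Hs343T. The cancer cells are basal-like or mesenchymal-like triple-negative breast cancer lines. The paper calls a changed response a hit when it shifts by more than 3x the replicate standard deviation. The tissue of the other fibroblasts is not given here.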

Test system: BT20
Experiment: relative JC-1 red fluorescence (viability) vs pre-drug, coculture with fibroblast (fraction); higher = more viable cancer cells
Details: 1 µM
Method: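 JC-1 labelled TNBC cells cocultured 1:1 (1,500 cells each) with CellTrace Violet stained primary or stromal fibroblasts in 384-well plates in FluoroBrite medium, treated with one of 42 anticancer drugs at 0.1, 1, 10 or 100 uM. JC-1 red fluorescence (mitochondrial integrity in cancer cells only) was read by plate reader every 8 h for 72 h. Values are normalised to each well's pre-drug value. The stock of one drug was tenfold lower, so its dose labels may be too high.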

O=C(CCCCCCC(=O)Nc1ccccc1)NO [Vorinostat]
relative JC-1 red fluorescence
Details	8 h	16 h	24 h	32 h	40 h
coculture fibroblast: C12385	0.906	0.837	0.742	0.678	0.629
coculture fibroblast: H6013	0.957	0.8865	0.82935	0.79326	0.7602
coculture fibroblast: H6019	0.8555	0.782	0.713	0.629	0.578
coculture fibroblast: H6076	0.757	0.879	0.771	0.736	0.699
coculture fibroblast: H6231	0.754	0.9253	0.8142	0.726	0.6721
coculture fibroblast: HADF	0.901	0.912	0.828	0.804	0.773
coculture fibroblast: HCFa	0.866	0.852	0.861	0.862	0.826
coculture fibroblast: HCPF	0.874	0.9183	0.793	0.745	0.679
coculture fibroblast: HHSteC	0.907	0.821	0.797	0.721	–
coculture fibroblast: HMF	0.838	0.942	0.768	0.694	–
coculture fibroblast: HPFa	0.925	0.8301	0.8371	0.755	–
coculture fibroblast: HUF	0.899	0.801	0.725	0.637	–
coculture fibroblast: Hs5	0.791	0.877	0.7875	0.7163	–
coculture fibroblast: Hs27A	0.754	0.866	0.924	0.924	–
coculture fibroblast: Hs343T	0.909	0.8861	0.739	0.682	–
coculture fibroblast: WS1	0.862	0.789	0.718	0.642	–
